Source: the odorant receptor screen of Mainland et al. (2015)
“And” between values parts separate entries of the source, which are not always exact repeats. Equal entries are not always repeated. The list shows a part of the results. Single wells; the ratio to wells without odorant was worked out here, and repeats agree poorly.

What was measured:
Assay in all cases: odorant receptor activation (CRE luciferase / Renilla) (fold of no-odor wells); higher = more activation
Details in all cases: 100 µM
OR52H1 clone 1702 = tested on: OR52H1 clone 1702
OR52I1 clone 1521 = tested on: OR52I1 clone 1521
OR52I2 T132M clone 1324 = tested on: OR52I2 T132M clone 1324
OR52K1 clone 1163 = tested on: OR52K1 clone 1163
OR52K2 clone 1211 = tested on: OR52K2 clone 1211
[1] = tested on: OR52L1 D73N/C125R/C146R/K168T/W282R clone 1116
OR52L2 R169W clone 1117 = tested on: OR52L2 R169W clone 1117
OR52M1 clone 1143 = tested on: OR52M1 clone 1143
OR52N1 clone 1191 = tested on: OR52N1 clone 1191
OR52N2 M228T clone 1569 = tested on: OR52N2 M228T clone 1569

| SMILES | odorant receptor activation (OR52H1 clone 1702) | odorant receptor activation (OR52I1 clone 1521) | odorant receptor activation (OR52I2 T132M clone 1324) | odorant receptor activation (OR52K1 clone 1163) | odorant receptor activation (OR52K2 clone 1211) | odorant receptor activation [1] | odorant receptor activation (OR52L2 R169W clone 1117) | odorant receptor activation (OR52M1 clone 1143) | odorant receptor activation (OR52N1 clone 1191) | odorant receptor activation (OR52N2 M228T clone 1569) |
| --- | --- | --- | --- | --- | --- | --- | --- | --- | --- | --- |
| C=C(C)C1CC=CCC1 (stereo unspecified) [r-limonene] | 0.833 | 1.19 and 1.26 and 0.971 | 0.948 and 0.961 | 0.964 and 0.363 | 1.14 and 0.533 | 1.09 | 0.913 | 0.908 and 0.309 | 1.02 and 0.486 | 0.938 |
| c1cnccn1 [pyrazine] | 0.825 | 0.915 | 0.853 | 0.98 | 0.996 | 0.946 | 0.977 | 0.976 | 0.711 | 0.765 |
| CC(=O)OC1CC2CCC1(C)C2(C)C (stereo unspecified) [isobornyl acetate] | 1.17 | 1.16 and 1.28 | 1.14 and 0.784 | 1.26 | 1.02 | 0.71 | 1.71 | 0.901 | 0.978 | 0.939 |
| CC1COCc2cc3c(cc21)C(C)(C)C(C)C3(C)C (stereo unspecified) [galaxolide] | 1.97 and 1.19 | – | 1.51 and 3.17 | 0.941 | 1.49 | 3.18 | 4.4 | 0.836 | 0.756 | – |
| CC(=O)OC(C)(C)C1CC=C(C)CC1 (stereo unspecified) [terpinyl acetate] | 0.943 | 1.13 | 0.82 | 1.24 | 1.21 | 1.4 | 1.05 | 1.29 | 1.02 | 0.539 |
| CCCCO [1-butanol] | 0.84 | 1.32 | 0.8 | 1.18 | 0.585 | 20.6 | 20 | 1.03 | 1.25 | 1.06 |
| O=CCc1ccccc1 [phenyl acetaldehyde] | 0.935 | 1.19 | 1.33 | 1.31 | 0.939 | 1.26 | 1.17 | 1.31 | 0.793 | 1.49 |
| CC1=NC(C)SC1C (stereo unspecified) | – | 1.02 and 0.959 | 0.703 | 0.605 | 0.824 | – | – | 0.948 | 0.886 | – |
| CC(=O)C(C)=O [diacetyl] | 0.783 | 1.55 | 1.31 | 1.19 | 1.17 | 1.08 | 1.13 | 1.09 | 1.14 | 0.767 |
| CCCCCCC=O [heptaldehyde] | 1.36 | – | 0.768 and 1.19 and 0.803 | – | – | 1.12 | 2 | 0.452 and 0.943 | 0.376 and 1.02 | 0.8 |
| CCCCCCCCCCC=O [undecanal] | 0.969 | 0.841 | 0.989 | 0.928 | 0.95 | 0.966 | 0.804 | 0.902 | 0.874 | 0.755 |
| CC12CCC(CC1)C(C)(C)O2 [cineole] | 1.13 | 0.703 | 0.836 | 0.741 | 0.907 | 0.893 | 0.87 | 0.863 | 0.815 | 1.02 |
| O=C1CCCCC1 [Cyclohexanone] | – | 1.25 and 0.951 | 0.861 | 0.632 | 0.858 | – | – | 0.979 | 0.918 | – |
| CCCCCC(C)=O [2-heptanone] | – | 0.912 and 0.65 | 2.99 | 0.969 | 0.996 | – | – | 1.21 | 0.897 | – |
| CC(=O)c1ccccc1 [acetophenone] | – | 1.13 and 0.715 | 2.72 | 1.13 | 1.52 | – | – | 1.54 | 1.06 | – |
| CC12C=CCC1C1CCC3=CC(=O)CCC3(C)C1CC2 (stereo unspecified) [androstadienone] | – | 1.09 and 1.27 | 0.793 and 0.861 | 0.972 | 0.858 | 0.825 | 2.08 | 0.837 | 0.883 | – |

Two of the compounds above, with tabs:
SMILES	odorant receptor activation (OR52H1 clone 1702)	odorant receptor activation (OR52I1 clone 1521)	odorant receptor activation (OR52I2 T132M clone 1324)	odorant receptor activation (OR52K1 clone 1163)	odorant receptor activation (OR52K2 clone 1211)	odorant receptor activation [1]	odorant receptor activation (OR52L2 R169W clone 1117)	odorant receptor activation (OR52M1 clone 1143)	odorant receptor activation (OR52N1 clone 1191)	odorant receptor activation (OR52N2 M228T clone 1569)
CCCCO [1-butanol]	0.84	1.32	0.8	1.18	0.585	20.6	20	1.03	1.25	1.06
CC(=O)c1ccccc1 [acetophenone]	–	1.13 and 0.715	2.72	1.13	1.52	–	–	1.54	1.06	–

Continuation.

| SMILES | odorant receptor activation (OR52H1 clone 1702) | odorant receptor activation (OR52I1 clone 1521) | odorant receptor activation (OR52I2 T132M clone 1324) | odorant receptor activation (OR52K1 clone 1163) | odorant receptor activation (OR52K2 clone 1211) | odorant receptor activation [1] | odorant receptor activation (OR52L2 R169W clone 1117) | odorant receptor activation (OR52M1 clone 1143) | odorant receptor activation (OR52N1 clone 1191) | odorant receptor activation (OR52N2 M228T clone 1569) |
| --- | --- | --- | --- | --- | --- | --- | --- | --- | --- | --- |
| CC(C)(C)c1ccc(CCC=O)cc1 [bourgeonal] | – | 0.881 | 0.786 | 0.626 | 0.691 | 0.834 | 0.789 | 0.689 | 0.554 | – |
| CCCCCCCC=O [octyl aldehyde] | 0.968 | 0.886 | 1.09 | 0.953 | 1.27 | 1.17 | 1.08 | 1.06 | 0.997 | 0.884 |
| C=CCc1ccc(O)c(OC)c1 [eugenol] | 1.15 | 1.89 and 0.922 and 1.72 | 1.86 and 1.45 | 2.18 and 1.26 | 2.41 and 1.2 | 1.57 | 1.28 | 4.1 and 1.49 | 2.07 and 1.2 | 1.3 |
| CC(C)CC(=O)O [isovaleric acid] | 1.18 | 0.905 | 0.814 | 1.06 | 1.21 | 1.25 | 1.26 | 1.03 | 1.22 | 0.868 |
| CC(C)(O)CCCC1=CCC(C=O)CC1 (stereo unspecified) [lyral] | 1.07 | – | – | – | – | – | – | – | – | 0.845 |
| C=CCc1ccc(OC)c(OC)c1 [eugenol methyl ether] | 1.11 | 1.82 | 1.67 | 1.39 | 1.48 | 1.66 | 1.52 | 1.71 | 1.51 | 0.705 |
| CC1CCC(C(C)C)C(O)C1 (single isomer, unassigned; (+)) [(+)-menthol] | 0.756 | 0.914 | 1.05 | 1.05 | 0.944 | 26.7 | 21.2 | 1.25 | 1.69 | 0.685 |
| CCCCCCOC(=O)CCC [hexyl butyrate] | 1.03 | 1.12 and 1.03 | 1.06 and 0.907 | 1.16 | 1.27 | 0.706 | 1.34 | 0.885 | 1.04 | 0.78 |
| CCCCCCCCOC(C)=O [octyl acetate] | 1.11 | 0.866 | 1.25 | 0.918 | 1.17 | 1.32 | 1.08 | 1.03 | 1.03 | 0.662 |
| CC(C)C=O [isobutyraldehyde] | 1.1 | 1.08 and 1.12 | 0.984 and 0.973 | 1.18 | 1.19 | 0.779 | 0.866 | 0.997 | 1.07 | 1.06 |
| CC12C=CCC1C1CCC3CC(=O)CCC3(C)C1CC2 (stereo unspecified) [androstenone] | – | 0.886 | 1.36 | 8.43 | 4.07 | 17.5 | 9.49 | 8.94 | 5.97 | – |
| COC(=O)c1ccccc1 [methyl benzoate] | – | 1.26 and 1.18 | 1.03 | 0.695 | 0.79 | – | – | 0.98 | 0.956 | – |
| CCCCCOC(C)=O [n-amyl acetate] | 1.08 | 1.44 and 0.948 | 0.823 | 0.478 | 0.899 | – | – | 0.586 | 0.61 | 0.953 |
| CC12CCC(C1)C(C)(C)C2=O (stereo unspecified) [fenchone] | 1.04 | 1.2 | 1.13 | 0.923 | 1.01 | 1.02 | 0.958 | 1.01 | 0.809 | 0.869 |
| C=C(C)C1CCC2=CC(=O)CC(C)C2(C)C1 (stereo unspecified) [amyl laurate] | 1.69 | – | – | – | – | – | – | – | – | 0.969 |
